Measurements taken from patent US20230293599A1, “BACTERIAL COMPOSITIONS WITH ANTI-INFLAMMATORY ACTIVITY” (Universiteit Gent, priority 2020, published 2023).

How the values were obtained:
Conditions in all cases: 35 hours, absorbance 590 nm, n = 1; cells without values AUC < 50
[1] = system: P. aeruginosa; test: Biolog Phenotype Microarray PM1-2 growth on carbon sources; type: cell-based, Pseudomonas aeruginosa
Protocol: (§1) Using Phenotype Microarray (PM) panels (Biolog), the influence of 190 carbon sources on the growth of the potential probiotic species R. mucilaginosa, R. dentocariosa, R. gilardii, G. haemolysans, and common respiratory pathogens P. aeruginosa, and S. aureus was determined. PM1 and PM2 panels (Biolog) were inoculated according to the manufacturer's instructions. Growth curves were generated for 35 hours by measuring the absorbance at 590 nm using an EnVision (Perkin Elmer) plate reader.

[2] = system: R. mucilaginosa; test: as above; type: cell-based, Rothia mucilaginosa
Protocol: as §1

[3] = system: S. aureus; type: cell-based, Staphylococcus aureus
Protocol: as §1

Structure (SMILES): NCCC[C@H](N)C(=O)O [L-Ornithine]
- AUC of growth curve, P. aeruginosa [1]: 66.2
- AUC of growth curve, R. mucilaginosa [2]: 56.2
- AUC of growth curve, S. aureus [3]: 760.9
